The supplement of paper PMC12067093, “Discovery and optimisation of a covalent ligand for TRIM25 and its application to targeted protein ubiquitination” (Chemical Science, 2025)
The other results are listed elsewhere or left out.

Sequences of proteins named here, by UniProt entry; tags and fusion partners are left off. A change or cut given only in a name is not applied to a line headed by its entry.
UniProt Q6P1N9: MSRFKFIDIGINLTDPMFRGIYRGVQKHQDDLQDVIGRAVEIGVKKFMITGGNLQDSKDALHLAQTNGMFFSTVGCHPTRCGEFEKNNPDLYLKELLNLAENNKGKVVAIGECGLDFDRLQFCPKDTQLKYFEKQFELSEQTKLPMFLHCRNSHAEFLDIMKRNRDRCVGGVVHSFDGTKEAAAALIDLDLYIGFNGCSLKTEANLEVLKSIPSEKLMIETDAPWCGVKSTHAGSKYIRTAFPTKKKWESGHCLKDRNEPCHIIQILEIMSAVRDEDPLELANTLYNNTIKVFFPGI
UniProt Q12962, whole entry: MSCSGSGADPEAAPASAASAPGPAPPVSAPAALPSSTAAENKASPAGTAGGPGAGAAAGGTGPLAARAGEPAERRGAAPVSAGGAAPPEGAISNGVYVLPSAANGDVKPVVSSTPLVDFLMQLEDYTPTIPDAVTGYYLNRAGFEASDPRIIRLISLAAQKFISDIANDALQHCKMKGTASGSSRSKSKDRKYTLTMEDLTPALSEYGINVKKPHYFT
UniProt O75529: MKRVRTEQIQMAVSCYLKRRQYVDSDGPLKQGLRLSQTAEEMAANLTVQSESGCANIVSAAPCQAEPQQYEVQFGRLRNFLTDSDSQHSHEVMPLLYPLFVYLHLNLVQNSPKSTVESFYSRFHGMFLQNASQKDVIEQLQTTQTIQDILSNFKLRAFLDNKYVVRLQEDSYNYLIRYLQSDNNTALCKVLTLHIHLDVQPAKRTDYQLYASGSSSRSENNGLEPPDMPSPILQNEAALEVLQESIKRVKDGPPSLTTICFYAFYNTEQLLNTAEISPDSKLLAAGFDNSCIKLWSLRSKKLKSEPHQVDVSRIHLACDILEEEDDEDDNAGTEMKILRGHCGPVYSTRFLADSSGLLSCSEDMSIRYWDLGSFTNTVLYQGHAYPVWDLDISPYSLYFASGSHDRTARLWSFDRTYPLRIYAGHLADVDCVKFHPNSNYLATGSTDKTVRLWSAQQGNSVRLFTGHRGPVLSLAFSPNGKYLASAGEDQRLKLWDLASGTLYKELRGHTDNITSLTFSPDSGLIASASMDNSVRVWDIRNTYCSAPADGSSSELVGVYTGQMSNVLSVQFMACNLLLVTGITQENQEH
UniProt P26639: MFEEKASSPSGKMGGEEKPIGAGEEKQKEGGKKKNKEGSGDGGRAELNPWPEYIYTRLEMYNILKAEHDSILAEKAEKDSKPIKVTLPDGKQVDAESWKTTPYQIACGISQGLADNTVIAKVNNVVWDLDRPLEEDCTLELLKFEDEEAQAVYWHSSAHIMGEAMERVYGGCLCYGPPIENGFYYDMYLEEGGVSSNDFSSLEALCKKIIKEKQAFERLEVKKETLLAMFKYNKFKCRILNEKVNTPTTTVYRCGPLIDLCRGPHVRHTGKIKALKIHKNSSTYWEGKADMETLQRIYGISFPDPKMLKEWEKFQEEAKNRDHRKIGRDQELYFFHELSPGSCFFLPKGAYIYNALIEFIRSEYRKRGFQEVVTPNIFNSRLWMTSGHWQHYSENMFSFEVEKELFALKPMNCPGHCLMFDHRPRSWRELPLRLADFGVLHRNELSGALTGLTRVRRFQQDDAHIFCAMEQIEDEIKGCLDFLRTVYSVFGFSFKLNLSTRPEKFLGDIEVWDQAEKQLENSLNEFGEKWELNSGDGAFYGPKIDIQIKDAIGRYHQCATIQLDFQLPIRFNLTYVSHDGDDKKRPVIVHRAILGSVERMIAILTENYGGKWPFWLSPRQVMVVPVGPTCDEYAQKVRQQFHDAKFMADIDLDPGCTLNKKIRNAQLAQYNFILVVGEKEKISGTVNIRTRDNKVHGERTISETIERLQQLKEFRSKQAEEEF
UniProt Q9UGU0: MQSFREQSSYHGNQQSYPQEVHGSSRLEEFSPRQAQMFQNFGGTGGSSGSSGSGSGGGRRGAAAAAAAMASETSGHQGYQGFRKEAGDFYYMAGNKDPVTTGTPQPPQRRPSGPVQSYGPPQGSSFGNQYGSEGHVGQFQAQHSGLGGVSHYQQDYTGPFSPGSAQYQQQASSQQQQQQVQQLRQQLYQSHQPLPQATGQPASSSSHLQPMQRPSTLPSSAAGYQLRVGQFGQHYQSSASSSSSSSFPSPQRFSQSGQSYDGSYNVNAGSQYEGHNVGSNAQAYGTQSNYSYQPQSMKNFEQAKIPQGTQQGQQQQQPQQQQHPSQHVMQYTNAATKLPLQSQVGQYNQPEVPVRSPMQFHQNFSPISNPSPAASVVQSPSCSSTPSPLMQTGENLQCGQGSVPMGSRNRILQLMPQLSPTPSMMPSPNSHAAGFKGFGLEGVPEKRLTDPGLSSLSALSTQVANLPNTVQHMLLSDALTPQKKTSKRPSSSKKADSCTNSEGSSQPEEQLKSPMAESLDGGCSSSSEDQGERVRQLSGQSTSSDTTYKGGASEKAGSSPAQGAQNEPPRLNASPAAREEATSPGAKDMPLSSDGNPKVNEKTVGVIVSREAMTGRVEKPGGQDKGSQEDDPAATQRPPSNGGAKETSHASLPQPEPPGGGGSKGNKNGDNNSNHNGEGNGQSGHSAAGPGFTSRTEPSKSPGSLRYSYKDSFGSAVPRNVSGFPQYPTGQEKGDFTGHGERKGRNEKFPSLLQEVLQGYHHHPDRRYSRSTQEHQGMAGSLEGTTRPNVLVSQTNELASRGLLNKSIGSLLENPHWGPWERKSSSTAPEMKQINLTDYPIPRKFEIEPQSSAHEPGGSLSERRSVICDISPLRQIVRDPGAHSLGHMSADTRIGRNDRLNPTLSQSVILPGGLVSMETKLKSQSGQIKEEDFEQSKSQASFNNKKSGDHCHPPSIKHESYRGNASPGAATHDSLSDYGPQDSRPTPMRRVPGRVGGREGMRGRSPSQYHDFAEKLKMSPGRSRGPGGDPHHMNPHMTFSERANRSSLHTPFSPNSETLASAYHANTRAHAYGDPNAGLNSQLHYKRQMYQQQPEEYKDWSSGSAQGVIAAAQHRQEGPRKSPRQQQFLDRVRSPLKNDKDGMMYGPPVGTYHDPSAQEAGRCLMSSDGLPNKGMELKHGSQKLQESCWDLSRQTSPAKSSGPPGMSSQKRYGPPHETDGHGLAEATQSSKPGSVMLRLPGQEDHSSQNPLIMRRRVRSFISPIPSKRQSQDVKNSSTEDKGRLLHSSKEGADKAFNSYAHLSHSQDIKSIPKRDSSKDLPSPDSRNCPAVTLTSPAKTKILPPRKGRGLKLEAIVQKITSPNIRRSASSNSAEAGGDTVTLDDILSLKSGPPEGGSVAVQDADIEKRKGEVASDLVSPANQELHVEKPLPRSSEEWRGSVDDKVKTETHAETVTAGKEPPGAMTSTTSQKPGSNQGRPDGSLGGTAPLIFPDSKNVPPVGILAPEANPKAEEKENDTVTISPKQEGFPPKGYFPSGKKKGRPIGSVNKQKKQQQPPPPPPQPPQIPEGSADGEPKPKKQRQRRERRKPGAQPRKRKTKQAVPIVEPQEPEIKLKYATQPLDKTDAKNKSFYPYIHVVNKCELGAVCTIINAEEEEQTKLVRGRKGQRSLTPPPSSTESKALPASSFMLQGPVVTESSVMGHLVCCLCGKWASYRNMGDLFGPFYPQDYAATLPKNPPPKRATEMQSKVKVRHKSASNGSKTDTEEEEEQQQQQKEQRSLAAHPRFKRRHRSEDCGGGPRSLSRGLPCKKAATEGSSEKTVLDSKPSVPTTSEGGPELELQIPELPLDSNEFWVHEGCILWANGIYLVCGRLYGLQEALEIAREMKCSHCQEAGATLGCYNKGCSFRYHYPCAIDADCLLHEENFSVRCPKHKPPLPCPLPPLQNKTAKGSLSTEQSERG
UniProt Q9UL54: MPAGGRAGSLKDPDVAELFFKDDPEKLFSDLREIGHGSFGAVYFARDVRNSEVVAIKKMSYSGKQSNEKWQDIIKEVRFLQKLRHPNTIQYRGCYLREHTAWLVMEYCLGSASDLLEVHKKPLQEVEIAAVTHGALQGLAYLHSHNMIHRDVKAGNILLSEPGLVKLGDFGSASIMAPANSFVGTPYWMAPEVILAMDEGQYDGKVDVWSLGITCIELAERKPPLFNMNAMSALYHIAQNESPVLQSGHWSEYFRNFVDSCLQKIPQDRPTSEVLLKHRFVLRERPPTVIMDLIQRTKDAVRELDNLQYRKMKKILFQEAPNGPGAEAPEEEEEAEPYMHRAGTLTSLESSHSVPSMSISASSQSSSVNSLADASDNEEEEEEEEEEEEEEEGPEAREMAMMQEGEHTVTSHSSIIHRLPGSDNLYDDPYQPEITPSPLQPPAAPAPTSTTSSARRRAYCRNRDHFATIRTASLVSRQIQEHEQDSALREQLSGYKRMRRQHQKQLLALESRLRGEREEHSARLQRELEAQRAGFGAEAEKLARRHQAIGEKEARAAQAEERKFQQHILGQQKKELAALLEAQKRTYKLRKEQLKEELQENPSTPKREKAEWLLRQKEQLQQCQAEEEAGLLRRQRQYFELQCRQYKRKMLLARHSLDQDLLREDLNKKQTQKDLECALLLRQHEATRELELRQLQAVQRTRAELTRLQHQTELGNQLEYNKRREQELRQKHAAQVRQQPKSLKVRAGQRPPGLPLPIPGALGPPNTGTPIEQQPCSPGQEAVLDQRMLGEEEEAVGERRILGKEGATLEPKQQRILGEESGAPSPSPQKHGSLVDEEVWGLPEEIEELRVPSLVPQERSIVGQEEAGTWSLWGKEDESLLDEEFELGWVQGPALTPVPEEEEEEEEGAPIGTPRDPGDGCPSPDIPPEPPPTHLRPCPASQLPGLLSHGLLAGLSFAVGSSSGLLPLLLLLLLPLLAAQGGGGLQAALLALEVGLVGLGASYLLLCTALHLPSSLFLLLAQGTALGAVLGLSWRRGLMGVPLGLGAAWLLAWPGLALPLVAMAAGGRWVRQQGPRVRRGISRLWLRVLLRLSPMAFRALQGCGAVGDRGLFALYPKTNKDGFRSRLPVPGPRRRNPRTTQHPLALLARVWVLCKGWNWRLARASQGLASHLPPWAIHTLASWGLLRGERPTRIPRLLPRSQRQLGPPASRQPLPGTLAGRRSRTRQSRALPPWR
UniProt O14776: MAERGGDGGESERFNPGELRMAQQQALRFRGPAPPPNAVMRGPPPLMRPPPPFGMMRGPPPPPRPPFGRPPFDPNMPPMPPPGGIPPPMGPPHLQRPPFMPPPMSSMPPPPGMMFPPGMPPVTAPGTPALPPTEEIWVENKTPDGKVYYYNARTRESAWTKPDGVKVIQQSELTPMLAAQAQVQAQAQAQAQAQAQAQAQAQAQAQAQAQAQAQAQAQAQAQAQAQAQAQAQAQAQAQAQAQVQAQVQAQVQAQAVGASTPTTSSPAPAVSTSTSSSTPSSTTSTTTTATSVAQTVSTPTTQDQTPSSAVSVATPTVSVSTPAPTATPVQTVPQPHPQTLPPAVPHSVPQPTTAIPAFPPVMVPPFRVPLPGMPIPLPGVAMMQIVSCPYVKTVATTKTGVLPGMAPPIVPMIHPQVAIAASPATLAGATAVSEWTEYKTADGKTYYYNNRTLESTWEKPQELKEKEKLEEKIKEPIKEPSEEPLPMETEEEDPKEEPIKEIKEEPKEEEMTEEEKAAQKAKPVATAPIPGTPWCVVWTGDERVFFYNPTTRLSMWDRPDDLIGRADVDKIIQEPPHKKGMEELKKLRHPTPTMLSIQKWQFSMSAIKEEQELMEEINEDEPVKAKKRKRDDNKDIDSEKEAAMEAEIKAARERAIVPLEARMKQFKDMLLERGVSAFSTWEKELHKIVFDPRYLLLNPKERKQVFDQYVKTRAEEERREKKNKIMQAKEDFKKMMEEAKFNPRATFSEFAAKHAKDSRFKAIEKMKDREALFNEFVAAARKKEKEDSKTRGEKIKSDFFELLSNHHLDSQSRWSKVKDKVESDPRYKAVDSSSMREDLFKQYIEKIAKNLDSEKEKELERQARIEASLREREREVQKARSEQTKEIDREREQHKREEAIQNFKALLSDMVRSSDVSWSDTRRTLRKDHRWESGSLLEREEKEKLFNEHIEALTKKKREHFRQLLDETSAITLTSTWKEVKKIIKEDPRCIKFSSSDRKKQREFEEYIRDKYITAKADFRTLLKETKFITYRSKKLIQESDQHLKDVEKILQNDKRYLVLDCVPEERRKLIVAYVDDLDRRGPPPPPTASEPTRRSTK
UniProt O75528: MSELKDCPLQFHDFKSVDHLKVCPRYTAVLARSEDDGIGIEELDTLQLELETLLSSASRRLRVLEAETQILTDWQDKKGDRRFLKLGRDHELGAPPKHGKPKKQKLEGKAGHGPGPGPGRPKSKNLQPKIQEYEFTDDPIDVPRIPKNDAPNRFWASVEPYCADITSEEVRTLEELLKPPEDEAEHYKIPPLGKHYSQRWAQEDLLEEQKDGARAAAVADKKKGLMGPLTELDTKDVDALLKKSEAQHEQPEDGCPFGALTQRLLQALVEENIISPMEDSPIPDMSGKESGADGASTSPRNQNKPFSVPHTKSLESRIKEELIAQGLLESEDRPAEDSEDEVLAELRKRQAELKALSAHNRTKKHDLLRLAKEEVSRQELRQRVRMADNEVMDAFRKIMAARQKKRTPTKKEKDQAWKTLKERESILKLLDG

Compound: Cc1cc(ccc1-c1ccccc1)C(=O)N1CCCN(CC1)C(=O)CCl [compound 10]
Test: probe-labelled cysteine peptide fold change vs DMSO (competition) (log2 fold change); higher = less target engagement (more negative = stronger competition)
Conditions: THP-1, incubation time: 4 h
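Further: competitive profiling in live THP-1 cells: cysteine peptides tagged with an iodoacetamide desthiobiotin (IA-DTB) probe, intensity after compound treatment relative to DMSO-treated cells.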

| Target | probe-labelled cysteine peptide fold change (10 µM) | probe-labelled cysteine peptide fold change (50 µM) |
| --- | --- | --- |
| TACC3_Q9Y6A5_459_LGQPAAEQLHAGPATEEPGPCLSQQLHSASAEDTPVVQLAAETPTAESK (UniProt Q9Y6A5) | -0.113 | -0.257 |
| TBL2_Q9Y4P3_335_FEEAAGAAPCR (UniProt Q9Y4P3) | -0.0079 | 0.135 |
| TBC1D1_Q86TI0_604_ANTLSHFPIECQEPPQPAR (UniProt Q86TI0) | -0.0467 | -0.164 |
| TBK1_Q9UHD2_267_AENGPIDWSGDMPVSCSLSR (UniProt Q9UHD2) | 0.0709 | -0.237 |
| TAF11_Q15544_173_VFVGEVVEEALDVCEK (UniProt Q15544) | 0.218 | 0.297 |
| TATDN1_Q6P1N9_113+123_VVAIGECGLDFDRLQFCPK (UniProt Q6P1N9) | -0.0541 | -0.251 |
| TAF10_Q12962_174_FISDIANDALQHCK (UniProt Q12962) | 0.0418 | -0.137 |
| TBC1D23_Q9NUY8_86_DCLQFIDQLSVPEEK (UniProt Q9NUY8) | -0.0219 | 0.113 |
| TANC1_Q9C0D5_1611_LQCGENGPAHPLPSK (UniProt Q9C0D5) | -0.114 | -0.165 |
| TAF5L_O75529_318_IHLACDILEEEDDEDDNAGTEMK (UniProt O75529) | -0.138 | 0.0942 |
| TARS_P26639_254+261_CGPLIDLCR (UniProt P26639) | -0.119 | -0.181 |
| TACC1_O75410_174_AAHGCVTAVSGK (UniProt O75410) | -0.225 | -0.242 |
| TBL3_Q12788_555_LWALQDFSCLK (UniProt Q12788) | 0.0566 | 0.312 |
| SYNCRIP_O60506_211_GYAFVTFCTK (UniProt O60506) | -0.0111 | 0.134 |
| TBCD_Q9BTW9_234_MAEFLDWSLCNLAR (UniProt Q9BTW9) | 0.0778 | -0.148 |
| TBL1XR1_Q9BZK7_367_WDPTGNLLASCSDDMTLK (UniProt Q9BZK7) | 0.0895 | 0.141 |
| TARS_P26639_656_FMADIDLDPGCTLNKK (UniProt P26639) | -0.21 | -0.342 |
| TATDN3_Q17R31_13_AAGVGLVDCHCHLSAPDFDRDLDDVLEK (UniProt Q17R31) | -0.0392 | -0.0637 |
| TBC1D1_Q86TI0_454_CLYEEK (UniProt Q86TI0) | -0.141 | -0.399 |
| TBL3_Q12788_511_LWALPQCQLLGVFSGHR (UniProt Q12788) | -0.251 | -0.0639 |
| TARBP1_Q13395_592_VNESYFKPSPTCSSIGLHK (UniProt Q13395) | -0.115 | -0.851 |
| TBL3_Q12788_298_VWEAASGQCVYTQAQPPGPGQELTHCTLAHTAGVVLTATADHNLLLYEAR (UniProt Q12788) | -0.0383 | -0.0693 |

| Target | probe-labelled cysteine peptide fold change (10 µM) | probe-labelled cysteine peptide fold change (50 µM) |
| --- | --- | --- |
| TCF20_Q9UGU0_1328_NCPAVTLTSPAK (UniProt Q9UGU0) | -0.301 | -0.252 |
| TAOK2_Q9UL54_643_QYFELQCR (UniProt Q9UL54) | 0.132 | -0.00659 |
| TBC1D2B_Q9UPU7_38_LCGYLQK (UniProt Q9UPU7) | -0.25 | -0.749 |
| SYNJ2_O15056_63_LTDAYGCLGELR (UniProt O15056) | 0.0226 | 0.227 |
| TAPBPL_Q9BX59_122_EVTCEISR (UniProt Q9BX59) | -0.138 | 0.00987 |
| TBC1D9B_Q66K14_839_HLASQYWGCSR (UniProt Q66K14) | 0.00106 | -0.626 |
| TAF2_Q6P1X5_690_LALTDILEQEQCFYR (UniProt Q6P1X5) | -0.214 | 0.132 |
| TAGLN2_P37802_38_QYDADLEQILIQWITTQCRK (UniProt P37802) | -0.622 | -0.903 |
| TBC1D8B_Q0IIM8_80_ILHQTPDSQVYLSIACGANREEITK (UniProt Q0IIM8) | 0.0612 | -0.0632 |
| TCF20_Q9UGU0_1918_YHYPCAIDADCLLHEENFSVR (UniProt Q9UGU0) | 0.317 | 0.504 |
| TAOK2_Q9UL54_1103_ALQGCGAVGDR (UniProt Q9UL54) | -0.262 | 0.101 |
| TBCD_Q9BTW9_457_GACSVGTNVR (UniProt Q9BTW9) | -0.073 | 0.00804 |
| TCERG1_O14776_535_AKPVATAPIPGTPWCVVWTGDER (UniProt O14776) | 0.228 | 0.108 |
| TAOK1_Q7L7X3_798_LDEAQEAECQVLK (UniProt Q7L7X3) | 0.0654 | 0.0138 |
| TARDBP_Q13148_50_YRNPVSQCMR (UniProt Q13148) | -0.0323 | -0.0275 |
| TAF5L_O75529_431_IYAGHLADVDCVK (UniProt O75529) | -0.0188 | 0.0298 |
| TBC1D1_Q86TI0_178_KFEVLFCGR (UniProt Q86TI0) | -0.0608 | -0.0516 |
| TBCA_O75347_67_MMIPDCQR (UniProt O75347) | 0.271 | -0.0236 |
| TADA3_O75528_255_SEAQHEQPEDGCPFGALTQR (UniProt O75528) | 0.239 | -0.368 |
| TCEA1_P23193_212_NVLCGNIPPDLFAR (UniProt P23193) | 0.332 | 0.133 |
| TARS2_Q9BW92_603_LLGVLAESCGGK (UniProt Q9BW92) | 0.0307 | 0.165 |

As entered above:
probe-labelled cysteine peptide fold change (50 µM) with TCERG1_O14776_535_AKPVATAPIPGTPWCVVWTGDER (UniProt O14776) is entered as 0.108
probe-labelled cysteine peptide fold change (10 µM) with TADA3_O75528_255_SEAQHEQPEDGCPFGALTQR (UniProt O75528) is entered as 0.239
